# Binding screen against folded nucleic acids

From ROBIN, a set of small-molecule microarray screens (doi:10.1002/anie.202211358).

Targets, with sequences 5′ to 3′:
T1: PreQ1 riboswitch RNA pseudoknot, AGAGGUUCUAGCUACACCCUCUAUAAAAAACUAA. From B. subtilis. Hit rate about 0.7% of about 24,000 compounds.
T2: SAM-II riboswitch RNA pseudoknot, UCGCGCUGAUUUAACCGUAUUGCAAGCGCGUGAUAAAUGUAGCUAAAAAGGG. Hit rate about 1% of about 21,000 compounds.
T3: TPP riboswitch RNA three-way junction, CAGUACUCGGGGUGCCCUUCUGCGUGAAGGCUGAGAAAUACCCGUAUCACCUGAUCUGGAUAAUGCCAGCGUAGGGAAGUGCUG. Hit rate about 0.7% of about 24,000 compounds.

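Compounds were printed on reactive glass slides in duplicate spots, a dye-labelled oligonucleotide was laid over them, and the fluorescence left after washing was read. For the PreQ1, TPP and SAM-II riboswitches the laboratory earlier reported (doi:10.1038/s41467-019-09493-3) 1 µM RNA, 2 h, and a rule that included a mean Z-score above 3 (spot signal-to-noise against the whole library), a score well above that on a control array, and duplicate spots agreeing (coefficient of variation under 100). The data file gives only the calls; its cut-offs may differ, and compounds hitting several targets are kept. These are primary screening calls, not affinities; a compound without a hit may have attached poorly or may still bind in solution.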
Key: active = hit, inactive = tested without a hit.
The compounds are a random part of those screened.
A target missing from an entry has no call listed here.
A dash means that no call is listed here.

| # | SMILES | T1 | T2 | T3 |
|---|---|---|---|---|
| 1 | `CCc1nn2c(=O)cc(CN3Cc4ccccc4C(O)C3)nc2s1` (configuration not stated) | inactive | inactive | inactive |
| 2 | `C=CCn1cc(CNCCCCc2ccccn2)c(C)n1` | inactive | inactive | inactive |
| 3 | `CCC(=O)N1CCN(c2cc(Nc3ccc(C)cc3)nc(C)n2)CC1` | inactive | - | inactive |
| 4 | `N#CC1=C(N)OC2=C(C1c1ccc(Cl)cc1)S(=O)(=O)N(Cc1ccccc1F)c1ccccc12` (configuration not stated) | inactive | - | inactive |
| 5 | `COCc1[nH]nc2c1C1(CCN(C(=O)c3ccccc3)CC1)C(C#N)=C(N)O2` | inactive | inactive | inactive |
| 6 | `CN1CCN(c2ccnc(N)n2)CC12CCC(=O)N(CC1CC1)CC2` (configuration not stated) | inactive | inactive | inactive |
| 7 | `CC(O)CN1CC2(CCC1=O)CCN(S(C)(=O)=O)CC2` (configuration not stated) | inactive | inactive | inactive |
| 8 | `COc1ccc(F)c(C(=O)N2C[C@H](CO)C[C@H](CN(C)C)C2)c1F` | inactive | inactive | inactive |
| 9 | `O=[N+]([O-])c1ccc(Cl)cc1NCCOCC(F)(F)F` | inactive | inactive | inactive |
| 10 | `O=C(NC1CC1)C1CN(Cc2cnc(NCc3ccccc3)nc2)CCN1` (configuration not stated) | inactive | inactive | inactive |
| 11 | `CN(C)c1ccc2cc(C(=O)N[C@@H](CCCN=C(N)CCl)C(=O)NCc3ccccc3)ccc2c1` | inactive | inactive | inactive |
| 12 | `O=C(c1nc2ccccc2[nH]c1=O)N1CC[C@@H](c2ccc3ccccc3c2)[C@H](O)C1` | inactive | inactive | inactive |
| 13 | `C=CC(=O)N1CCC[C@@H](n2nc(-c3ccc(Oc4ccccc4)cc3)c3c(N)ncnc32)C1` | inactive | inactive | inactive |
| 14 | `COc1ccc(-c2n[nH]cc2CN2CCC3(CC2)[C@H](O)C[C@@H]3OCCN)cc1` | inactive | inactive | inactive |
| 15 | `CC(=O)c1ccc(Oc2ccc(N)cc2)cc1` | inactive | active | inactive |
| 16 | `NCCN1CCNCC1` | inactive | inactive | inactive |
| 17 | `CN(C)c1nc(N)nc(N(c2ccccc2)c2ccccc2)n1` | inactive | inactive | inactive |
| 18 | `CC(C)OC(=O)C1=C(N)SC(C(=O)c2ccccc2)C1c1ccccc1` (configuration not stated) | inactive | inactive | inactive |
| 19 | `Cc1ccc(CN2c3ccccc3C3=C(C(c4cccc(Cl)c4)C(C#N)=C(N)O3)S2(=O)=O)cc1` (configuration not stated) | inactive | - | inactive |
| 20 | `COc1cc(C2C(C#N)=C(N)OC3=C2C(=O)CC(C)(C)C3)cc(OC)c1OC` (configuration not stated) | inactive | inactive | inactive |
| 21 | `CC[C@@]1(O)CCN(C(=O)c2ccc3oc(=O)n(C)c3c2)C[C@H]1O` | inactive | inactive | inactive |
| 22 | `O=C(O)c1cccc(Nc2c(-c3cccc(O)c3)nc3cnccn23)c1` | inactive | - | inactive |
| 23 | `CCC1(CO)CCCN(c2ccnc(C)c2)C1` (configuration not stated) | inactive | inactive | inactive |
| 24 | `Cc1nnc2c3ccccc3nc(NCc3cccnc3)n12` | inactive | - | inactive |
| 25 | `O[C@@H](c1nc(-c2ccncc2)nn1CCc1cnc[nH]1)C1CCCCC1` | inactive | inactive | inactive |
| 26 | `COc1cccc(CC2(CO)CCN(c3ncccn3)CC2)c1` | inactive | inactive | inactive |
| 27 | `COc1ccc2[nH]c(C)c(CCNCc3ccc(C#N)cc3)c2c1` | active | active | inactive |
| 28 | `CN(C)c1nc2c(c(=O)[nH]1)CCN(C(=O)[C@@H]1C[C@@H](O)CN1)C2` | inactive | inactive | inactive |
| 29 | `O=C(c1cc(-c2ccccc2O)n[nH]1)N1CC[C@H]2CNC[C@H]21` | inactive | inactive | inactive |
| 30 | `Cc1nn(-c2ccccc2)c2c1C1(C(=O)Nc3ccc(F)cc31)C(C#N)=C(N)O2` (configuration not stated) | inactive | inactive | inactive |
| 31 | `CCOc1ccc(-c2noc(-c3nnn(-c4ccccc4C(F)(F)F)c3N)n2)cc1` | inactive | - | inactive |
| 32 | `CC[C@@]1(O)C(=O)OCc2c1cc1n(c2=O)Cc2cc3c(N)cccc3nc2-1` | inactive | inactive | inactive |
| 33 | `Cc1cccc(NC2=C(c3ccccc3)C(=O)c3ccccc32)c1` | inactive | inactive | inactive |
| 34 | `CCn1cc(-c2cn(CCCc3csc(N)n3)nn2)c(C)n1` | inactive | inactive | inactive |
| 35 | `O=C1[C@H](Cc2ccc(O)cc2)N2C(=O)CCN(C(=O)NCc3ccccc3)[C@H]2CN1Cc1cccc2ccccc12` | inactive | inactive | inactive |
| 36 | `CC(=O)C1=C(C)OC(N)=C(C(=O)OCc2ccccc2)C12C(=O)Nc1ccccc12` (configuration not stated) | inactive | inactive | inactive |
| 37 | `CC(C)(C)c1ccc(-c2nc(NCc3ccco3)c3ccccc3n2)cc1` | inactive | inactive | inactive |
| 38 | `Cc1cc2c(Nc3cccc(Cl)c3C)ncnc2s1` | inactive | inactive | inactive |
| 39 | `COc1ccc2nc(Nc3nc4ccc(OC)cc4s3)sc2c1` | inactive | inactive | inactive |
| 40 | `CCOC(=O)c1c(N)oc2c3c(c(O)cc12)C(=O)c1ccccc1C3=O` | inactive | inactive | inactive |

The last 4 entries again:

- CC(C)(C)c1ccc(-c2nc(NCc3ccco3)c3ccccc3n2)cc1 | T1: inactive; T2: inactive; T3: inactive
- Cc1cc2c(Nc3cccc(Cl)c3C)ncnc2s1 | T1: inactive; T2: inactive; T3: inactive
- COc1ccc2nc(Nc3nc4ccc(OC)cc4s3)sc2c1 | T1: inactive; T2: inactive; T3: inactive
- CCOC(=O)c1c(N)oc2c3c(c(O)cc12)C(=O)c1ccccc1C3=O | T1: inactive; T2: inactive; T3: inactive